Source: PubChem BioAssay AID1508597 (Cure First, 2020)
Here is one part, drawn at random, of about 2,100 deposited reagents. 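Calls flag viability under 80% in either arm, not effects specific to rucaparib; the reference for percent is not stated.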 A reagent listed more than once was tested more than once; the source does not tell the runs apart. No sequences are given here. The record does not give: the 100% reference.

Assay: 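Survival screen with siRNA in ovarian cancer cells derived from patients, with or without rucaparib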 (primary screen)
System: human ovarian carcinoma lines grown from tumours: OCI-P5x (papillary serous) and OCI-C5x (clear cell)
Knock-down reagent: siRNA pool against human genes, 1.25 pmol siRNA per well
Duration: 72 h or 96 h, depending on the cell culture
Conditions: rucaparib 20 µM (about IC30) or vehicle, present until read-out
Measurement: 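Luminescent ATP-based viability assay read 72 or 96 h after transfection, depending on culture, given as normalised percent viability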
Direction: viability, normalised: higher = more viable cells remaining
Rule for the call: 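a well counts as a hit if its normalised viability is under 80 percent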
Meaning of the calls: active = viability under 80%; inactive = viability 80% or more

no.	gene symbol	rucaparib or vehicle	cell line	technical replicate	viability, normalised (%)	activity call
1	BTK	Rucaparib	OCI-C5x (clear cell)	1	73.8	active
2	BTK	Rucaparib	OCI-C5x (clear cell)	1	61.6	active
3	BTK	Rucaparib	OCI-C5x (clear cell)	2	55.4	active
4	BTK	Rucaparib	OCI-C5x (clear cell)	2	62.6	active
5	BTK	Rucaparib	OCI-C5x (clear cell)	3	64.8	active
6	BTK	Rucaparib	OCI-C5x (clear cell)	3	69.3	active
7	BTK	Rucaparib	OCI-P5x (serous)	1	83	inactive
8	BTK	Rucaparib	OCI-P5x (serous)	1	74.5	active
9	BTK	Rucaparib	OCI-P5x (serous)	2	76.6	active
10	BTK	Rucaparib	OCI-P5x (serous)	2	67.2	active
11	BTK	Rucaparib	OCI-P5x (serous)	3	70.7	active
12	BTK	Rucaparib	OCI-P5x (serous)	3	70.5	active
13	BTK	Vehicle	OCI-C5x (clear cell)	1	62.1	active
14	BTK	Vehicle	OCI-C5x (clear cell)	1	71.3	active
15	BTK	Vehicle	OCI-C5x (clear cell)	2	72.4	active
16	BTK	Vehicle	OCI-C5x (clear cell)	2	68.5	active
17	BTK	Vehicle	OCI-C5x (clear cell)	3	55.6	active
18	BTK	Vehicle	OCI-C5x (clear cell)	3	58.1	active
19	BTK	Vehicle	OCI-P5x (serous)	1	81.8	inactive
20	BTK	Vehicle	OCI-P5x (serous)	1	71.6	active
21	BTK	Vehicle	OCI-P5x (serous)	2	80.8	inactive
22	BTK	Vehicle	OCI-P5x (serous)	2	65.8	active
23	BTK	Vehicle	OCI-P5x (serous)	3	67.1	active
24	BTK	Vehicle	OCI-P5x (serous)	3	78.1	active
